PubChem BioAssay AID1671190 (National Center for Advancing Translational Sciences (NCATS), 2021)
Values joined by “and” are separate entries in the source; they are usually repeats but may differ in a detail not shown here. Equal values may be shown once. Hit rate of the full screen: of about 580,000 compounds, about 6,100 (1.1%) were called active. The shares of active, inactive and inconclusive entries below differ from those in the screen. Calls follow the shape of the dose curve; as a rule, active = well fitted inhibition curve with a large enough effect; inconclusive = small, poorly fitted or top-dose-only effect, or another doubt; inactive = no such curve, though single readings can be large or run the other way. Potencies beside an inconclusive call are fits to weak or partial responses and may not hold up.

The chains behind the UniProt entries cited, without tags or fusion partners. Where a name states a change or a piece, a line headed by the entry shows the natural chain unless it says otherwise.
UniProt P18054: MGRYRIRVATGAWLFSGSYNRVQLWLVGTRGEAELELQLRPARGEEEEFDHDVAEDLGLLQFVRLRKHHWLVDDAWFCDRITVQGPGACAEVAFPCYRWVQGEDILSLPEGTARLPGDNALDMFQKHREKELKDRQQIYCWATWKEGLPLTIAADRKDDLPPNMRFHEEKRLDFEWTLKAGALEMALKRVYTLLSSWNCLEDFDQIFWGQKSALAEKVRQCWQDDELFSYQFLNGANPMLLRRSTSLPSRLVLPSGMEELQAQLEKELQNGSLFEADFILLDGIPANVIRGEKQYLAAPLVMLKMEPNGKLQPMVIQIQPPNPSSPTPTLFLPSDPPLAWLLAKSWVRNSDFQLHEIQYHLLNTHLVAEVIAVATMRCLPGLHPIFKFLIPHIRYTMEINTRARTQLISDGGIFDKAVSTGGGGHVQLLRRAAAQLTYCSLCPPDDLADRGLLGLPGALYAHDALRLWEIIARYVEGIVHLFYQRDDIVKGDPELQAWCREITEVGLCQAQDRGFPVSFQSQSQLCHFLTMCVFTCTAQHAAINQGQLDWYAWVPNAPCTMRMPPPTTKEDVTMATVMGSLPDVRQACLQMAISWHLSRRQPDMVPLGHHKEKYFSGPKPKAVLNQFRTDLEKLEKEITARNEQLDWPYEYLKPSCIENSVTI

Target: Polyunsaturated fatty acid lipoxygenase ALOX12 (Homo sapiens) (UniProt P18054)
Assay: Primary qHTS assay for inhibitors of human arachidonate 12S-lipoxygenase (ALOX12): Round 2
Conditions: purified 12hLO, xylenol orange hydroperoxide absorbance; activity change, negative = inhibition: at 108 µM (top of the series) unless noted
Outline: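 Purified human 12hLO (150 nM final) in 25 mM Hepes, 0.01% Triton X-100, pH 7.0 was preincubated 15 min at room temperature with compound. Then 40 uM arachidonic acid was added, 30 min. Hydroperoxide was read by Fe-XO absorbance ratio 573/405 nm.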
% is scaled to controls: 0 for no effect and ±100 for the full control effect; potency is read from the fitted curve at half-maximal effect.

Compound | Potency | activity change, negative = inhibition
CC1=C(C(=O)Nc2ccc(C)cc2)C(c2ccc(Br)cc2)NC(=S)N1 (configuration not stated) | inconclusive: 50.1 µM [inhibitor, partial curve, poor fit] | 
CCn1cc(C(=O)NCCCN2CC(C)CC(C)C2)c(=O)c2cc(S(=O)(=O)N(C)C3CCCCC3)ccc21 (configuration not stated) | inactive | 
Cc1ccc(/C=C/C(=O)c2ccc(C#N)cc2)s1 | inconclusive: 158 µM [inhibitor, single point] | 
CS(=O)(=O)N(CC(=O)NCCSCc1ccccc1)c1ccccc1Cl | inconclusive: 39.8 µM [inhibitor, partial curve, poor fit] | 
COc1ccc(CNC(=O)CCCN2C(=O)CCn3nc(-c4cn(C)c5ccccc45)cc32)cc1 | inconclusive: 100 µM [inhibitor, partial curve, poor fit] | 
COc1cc2nc(N3CCN(c4cc(C)ccc4C)CC3)nc(N)c2cc1OC | inconclusive: 50.1 µM [inhibitor, partial curve, poor fit] | 
N#C/C(=C\c1ccc(OCc2ccc(F)cc2)cc1)C(=O)Nc1cccc(C(=O)O)c1 | inactive | 
CC1CCCC(NC(=O)c2ccc(F)cc2Br)C1C (configuration not stated) | inactive | 
CCCCCCCNC(=O)CCC(=O)NCCC(C)C | inactive | 
O=C(O)c1cc(Cl)ccc1F | inactive | 
NC(=O)C1CC(=O)N(Cc2ccc3c(c2)OCO3)C(=Nc2ccccc2)S1 (configuration not stated) | inconclusive: 141 µM [inhibitor, partial curve, poor fit] | 
CCCCNC(=S)Nc1ccc(Cl)cc1 | inconclusive: 126 µM [inhibitor, partial curve, poor fit] | 
CC(C)n1c(CN2CCN(Cc3ccccc3)CC2)nc2ccccc21 | inconclusive: 25.1 µM [inhibitor, partial curve, poor fit] | 
Cc1ccsc1C(=O)N1CCC2(CC1)NC(=O)N(c1cccc(F)c1)N2 | active: 2.82 µM | 
COc1cc(CNC(=O)Cc2ccc(C)cc2)ccn1 | inconclusive: 31.6 µM [inhibitor, single point] | 
COc1cc(-c2c(OC)cccc2OC)cc2c1OCCN(C(=O)CCn1nc(C)cc1C)C2 | inactive | 
COC(=O)c1ccc(NC(=S)NCCc2cccc(C)c2)cc1 | inconclusive: 141 µM [inhibitor, partial curve, poor fit] | 
O=C(CNC1CCCCC1)N1CCc2ccccc2C1 | inconclusive: 2 µM [inhibitor, full curve] | 
COCc1ccccc1NS(=O)(=O)c1cc(C(=O)O)cc2c1CCC2 | inconclusive: 17.8 µM [inhibitor, partial curve] | 
CC(=O)c1ccc(NC(=O)/C(=C\c2ccc(F)cc2)NC(=O)c2ccco2)cc1 |  | inconclusive: -34.7% [inhibitor]
CNCc1cn(C[C@H]2O[C@@H](CC(=O)N3CCN(c4ccccc4)CC3)[C@H](O)[C@@H]2O)nn1 | inconclusive: 7.08 µM [inhibitor, full curve] | 
Cn1nccc1C(=O)Nc1sc2c(c1C#N)CCCC2 | inconclusive: 39.8 µM [inhibitor, partial curve, poor fit] and inconclusive: 35.5 µM [inhibitor, partial curve] | 
O=C(NCC1CCCO1)C(c1ccc(F)cc1)N(Cc1ccc2c(c1)OCO2)C(=O)c1ccc(CN2CCOCC2)o1 (configuration not stated) | inconclusive: 112 µM [inhibitor, partial curve, poor fit] | 

Compound | Potency | activity change, negative = inhibition
Cc1ccc(C)c(N(CC(=O)NC(C)(C)C)C(=O)CNC(=O)c2cccs2)c1 | inconclusive: 158 µM [inhibitor, single point] | 
Cc1ccc(NC(=O)c2nc3ccccc3nc2N2CCOCC2)cc1F | inactive | 
O=C(Nc1ccccc1)C1=C[C@@H](c2ccc(Br)cc2)C[C@@H](OCCCCO)O1 | inconclusive: 50.1 µM [inhibitor, partial curve, poor fit] | 
CC(C)c1ccccc1-n1c(-c2cccnc2)n[nH]c1=S | inconclusive: 89.1 µM [inhibitor, single point] | 
CCOc1ccc(NC(=O)Cn2c(=O)cc(C)c3c(C)nn(C)c32)cc1 | inactive | 
O=C(CCCSc1nc2ccccc2s1)Nc1nccs1 | inconclusive: 126 µM [inhibitor, single point] | 
Cc1cc(C(=O)CN2C(=O)c3ccccc3S2(=O)=O)c(C)n1-c1ccccc1 | inconclusive: 56.2 µM [inhibitor, partial curve, poor fit] | 
Cc1nn(Cc2ccc(C(=O)O)o2)c(C)c1[N+](=O)[O-] | inconclusive: 56.2 µM [inhibitor, partial curve, poor fit] | 
CCS(=O)(=O)c1ccc2oc([C@H]3CCN(C(C)C)C3)nc2c1 | inactive | 
C=CCc1cc(/C=C2/NC(=O)NC2=O)cc(OCC)c1OCc1ccc(F)cc1 | inactive | 
Cc1c(CN(C)C(=O)c2cc(-c3ccccc3)nc3ccc(Br)cc23)cnn1C | inactive | 
CCCCC(=O)NC(=S)NNC(=O)CC#N | inactive | 
O=C(O)c1cc([N+](=O)[O-])ccc1-c1ccc([N+](=O)[O-])cc1C(=O)O | inconclusive: 28.2 µM [inhibitor, partial curve, poor fit] | 
Cc1ccccc1NC(=O)CSc1nc(=O)n(CCN(C)C)c2c1CCC2 | inactive | 
Cc1ccc(Sc2nc([N+](=O)[O-])nn2C)cc1 | inconclusive: 44.7 µM [inhibitor, partial curve] | 
O=C(c1cc(-c2cccc(Cl)c2)on1)N1CCc2ccccc2C1 | inconclusive: 141 µM [inhibitor, partial curve, poor fit] | 
Cc1cccc(Nc2ccc(S(=O)(=O)N3CCOCC3)cc2[N+](=O)[O-])c1 | inconclusive: 35.5 µM [inhibitor, single point] | 
CCOC(=O)C1CCN(c2ncnc3c2cnn3-c2ccc(OC)cc2)CC1 | inactive | 
Cc1ccc(S(=O)(=O)c2c(Nc3ccc(C)c(C)c3)sc(C(=O)c3ccc4c(c3)OCO4)c2N)cc1 | inconclusive: 56.2 µM [inhibitor, partial curve, poor fit] | 
CCN(CC)C(=O)C[C@@H]1CCNC[C@@H]1Cc1cc(-c2ccc(C(C)(C)C)cc2)on1 | inconclusive: 39.8 µM [inhibitor, full curve] | 
C[C@@H](N)C(=O)N1CCOc2c(O)cc(-c3ncc(C(F)(F)F)cc3Cl)cc2C1 | inactive | 
Cc1cc(NC(=S)Nc2cccnc2)ccc1Br | inactive | 
C=CCn1c(-c2ccccc2OC)n[nH]c1=S | inconclusive: 141 µM [inhibitor, partial curve, poor fit] | 

Compound | Potency | activity change, negative = inhibition
N#Cc1cccc(-c2ccc3c(c2)COCC(=O)N3CCN2CCOCC2)c1 | inconclusive: 141 µM [inhibitor, single point] | 
Cc1c(NC(=O)/C(=C/c2cccs2)c2cccs2)c(=O)n(-c2ccccc2)n1C | inconclusive: 89.1 µM [inhibitor, partial curve, poor fit] | 
C=CCNc1oc(-c2ccc(COc3ccc(C)cc3)o2)nc1C#N | inconclusive: 39.8 µM [inhibitor, partial curve, poor fit] | 
Cc1ccc(C2Cn3nnc(-c4noc(-c5cc(F)ccc5Cl)n4)c3CO2)cc1 (configuration not stated) | inactive | 
Cc1ccccc1-c1nc(C#N)c(NCCCN2CCOCC2)o1 | inactive | 
S=C1NC2(CCCCC2)Cc2ccccc21 | inconclusive: 35.5 µM [inhibitor, partial curve, poor fit] | 
CCc1ccc(CNC(=O)c2cnc(N3CCCCC3)c3ccccc23)cc1 | inactive | 
COc1ccc(-n2c(-c3ccccc3)nc(=S)c3c2CCCC3)cc1 | inconclusive: 56.2 µM [inhibitor, partial curve, poor fit] | 
CC1=NN(c2ccccc2)C(c2ccco2)C1 (configuration not stated) | inconclusive: 56.2 µM [inhibitor, partial curve, poor fit] | 
COc1ccc(CCNC(=O)C(=O)Nc2ccc(C)c(C)c2)cc1 | inactive | 
CCOc1cc(/C=C2\NC(=O)NC2=O)cc(Cl)c1OCc1cccc(F)c1 | inconclusive: 5.01 µM [inhibitor, full curve, poor fit] | 
N#Cc1cccc(NC(=O)c2n[nH]c(=O)c3ccccc23)c1 | inconclusive: 44.7 µM [inhibitor, partial curve, poor fit] | 
CC(C)(C)c1ccc(OCC(=O)NNC(=S)NC(=O)c2ccco2)c(Br)c1 | inconclusive: 28.2 µM [inhibitor, partial curve] | 
Cc1cccc(-c2c3c(=O)n(C)c(=O)n(C)c3cn2-c2ccc(O)cc2)c1 | inconclusive: 70.8 µM [inhibitor, partial curve, poor fit] | 
Cc1ccccc1NC(=O)c1c(Cl)nc(C)c(Cl)c1C | inactive | 
NCCC(=O)N1CCC2(CC1)CN(C(=O)c1ccc(Cl)cc1)CCO2 | inconclusive: 4.47 µM [inhibitor, full curve, poor fit] | 
O=C(Nc1ccc(S(=O)(=O)N2CCOCC2)cc1)c1cc(Cl)ccc1NS(=O)(=O)c1ccc(Cl)s1 | inconclusive: 9.07 µM [inhibitor, single point] | 
CC(=O)NC(NC(=S)Nc1ccc(N=Nc2ccccc2)cc1)C(Cl)(Cl)Cl (configuration not stated) | inactive | 
CC(=O)c1cccc(NC(=S)N2CCC(Cc3ccccc3)CC2)c1 | inconclusive: 44.7 µM [inhibitor, partial curve, poor fit] | 
COc1ccc(-c2cc3c(c4c2ccn4C)C2CCC3O2)cn1 (configuration not stated) | inconclusive: 112 µM [inhibitor, partial curve, poor fit] | 
CCOC(=O)CCC(NC(=O)c1cncc(O)c1)C(=O)OCC (configuration not stated) | inconclusive: 12.6 µM [inhibitor, full curve] | 

Compounds above that have an NH in an aromatic ring:
Compound | Potency | activity change, negative = inhibition
CC(C)c1ccccc1-n1c(-c2cccnc2)n[nH]c1=S | inconclusive: 89.1 µM [inhibitor, single point] | 
C=CCn1c(-c2ccccc2OC)n[nH]c1=S | inconclusive: 141 µM [inhibitor, partial curve, poor fit] | 
N#Cc1cccc(NC(=O)c2n[nH]c(=O)c3ccccc23)c1 | inconclusive: 44.7 µM [inhibitor, partial curve, poor fit] | 
